US20160122742A1 (published 2016)
These are yes or no findings as the source states them, for the method shown. In cells and extracts the contact can be indirect. Some results given as binding are weak or reduced against the parent protein; the word gives no strength. Sequences can lack the tags named with a protein.

Biological target: T1, Flag tagged full length Obi1 protein (human) (UniProt Q5W0B1)
T1 sequence: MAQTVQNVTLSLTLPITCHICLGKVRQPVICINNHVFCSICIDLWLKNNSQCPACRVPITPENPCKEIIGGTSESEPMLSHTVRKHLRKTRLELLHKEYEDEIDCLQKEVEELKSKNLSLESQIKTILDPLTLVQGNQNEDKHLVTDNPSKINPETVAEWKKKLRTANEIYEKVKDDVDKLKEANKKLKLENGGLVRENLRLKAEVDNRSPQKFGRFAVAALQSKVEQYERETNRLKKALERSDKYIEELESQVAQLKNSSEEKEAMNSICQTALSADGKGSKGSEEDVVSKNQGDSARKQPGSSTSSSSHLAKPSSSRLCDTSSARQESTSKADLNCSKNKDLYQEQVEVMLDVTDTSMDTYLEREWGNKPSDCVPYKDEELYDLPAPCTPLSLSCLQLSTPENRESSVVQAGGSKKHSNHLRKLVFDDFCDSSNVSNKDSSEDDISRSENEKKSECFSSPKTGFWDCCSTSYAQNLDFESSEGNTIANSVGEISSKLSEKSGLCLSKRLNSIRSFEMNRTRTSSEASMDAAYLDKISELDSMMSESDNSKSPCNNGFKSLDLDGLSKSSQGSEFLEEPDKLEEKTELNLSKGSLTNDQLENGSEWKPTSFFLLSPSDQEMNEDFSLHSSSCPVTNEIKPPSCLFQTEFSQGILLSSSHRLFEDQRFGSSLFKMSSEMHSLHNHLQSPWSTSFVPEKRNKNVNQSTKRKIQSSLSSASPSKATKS
Assay: anti-Flag co-immunoprecipitation from transfected U2OS cells, western blot with anti-Myc

binding: binds
B1: Myc-NES-Obi1(1-280) (protein, not shown: small tags and cut ends)
chain: MEQKLISEEDLNEMEQKLISEEDLNEMEQKLISEEDLNEMEQKLISEEDLNEMEQKLISEEDLNEMESLGDLTMSLALKLAGLDIGSMAQTVQNVTLSLTLPITCHICLGKVRQPVICINNHVFCSICIDLWLKNNSQCPACRVPITPENPCKEIIGGTSESEPMLSHTVRKHLRKTRLELLHKEYEDEIDCLQKEVEELKSKNLSLESQIKTILDPLTLVQGNQNEDKHLVTDNPSKINPETVAEWKKKLRTANEIYEKVKDDVDKLKEANKKLKLENGGLVRENLRLKAEVDNRSPQKFGRFAVAALQSKVEQYERETNRLKKALERSDKYIEELESQVAQLKNSSEEKEAMNSICQTALSADGK
